This passage reports binding results from article doi:10.1101/046789.

No constants are given. Whether binding was seen depends on the method and setting. Binding calls can cover weak binding; strength is not graded here.

The target of this assay is T1, Human Bcl10 (human) (UniProt O95999).
T1 sequence: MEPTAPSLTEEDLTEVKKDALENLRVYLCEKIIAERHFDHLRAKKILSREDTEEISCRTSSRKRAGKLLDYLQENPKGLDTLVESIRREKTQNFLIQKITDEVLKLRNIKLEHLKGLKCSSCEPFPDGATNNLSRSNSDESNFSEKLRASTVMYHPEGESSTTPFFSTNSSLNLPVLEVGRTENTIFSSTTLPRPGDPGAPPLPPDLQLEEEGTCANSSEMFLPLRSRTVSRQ
The assay can be described thus: two-hybrid.

For the substance “N. vectensis type 1 paracaspase paralog “A””, the binding result is “no binding”.

As for “N. vectensis type 1 paracaspase paralog “B””, the binding entry is “binds”.
